Experiment: Critical mole ratio or critical mass ratio of medicines and beta-cyclodextrin derivative (Table 1, examples)
Format: physicochemical
Conditions: beta-cyclodextrin derivative (hydroxide propyl beta-cyclodextrin in the examples) to medicine; complex dissolves exactly in water to stable solution
Method: The critical mole ratio or critical mass ratio in the present invention refers to the mole ratio and mass ratio when complex of organic medicine and beta-cyclodextrin derivatives prepared with the method of this invention is dissolved exactly in water of specified amount to form stable aqueous solution.
The critical value of organic medicine and beta-cyclodextrin derivatives in the present invention, may be determined with the undermentioned unit test method.
All kinds of mole ratio and mass ratio of the medicine and beta-cyclodextrin derivative is made into complex with expanding loose body according to the method of the present invention, then the set water is added into the a variety of compounding ratio of complex, and by observing properties of the solution, the compounding ratio of exactly dissolving in water and with stable property, acts as the critical mole ratio or critical mass ratio of the present invention.
The critical mole ratio and critical mass ratio in the present invention may be determined with the undermentioned saturated solution method. […]
From the results, it is seen that the results two measuring method of critical value are consistent generally. The critical mole ratio orcritical mass ratio of all kinds of medicines applied in the present invention, which measured in the experiments, is indicated in the following table 1: […]

Critical value mole ratio: 3
Structure (SMILES): C(=C\c1ccccc1)/CN1CCN(C(c2ccccc2)c2ccccc2)CC1 [cinnarizine]

Source: patent publication US20050215520A1, “Complex of organic medicines and beta-cyclodextrin derivatives and its preparing process” (priority 2002, published 2005)
